Data reported in US20260265238A1, “COMPOUNDS AND PHARMACEUTICAL COMPOSITIONS THAT DEGRADE SWI/SNF-RELATED MATRIX-ASSOCIATED ACTIN-DEPENDENT REGULATOR OF CHROMATIN SUBFAMILY A” (Plexium, Inc., priority 2023, published 2026).
The match of structure and compound is tentative.

Chains of the proteins cited; added tags and fusions are not shown.
UniProt P51532, whole entry: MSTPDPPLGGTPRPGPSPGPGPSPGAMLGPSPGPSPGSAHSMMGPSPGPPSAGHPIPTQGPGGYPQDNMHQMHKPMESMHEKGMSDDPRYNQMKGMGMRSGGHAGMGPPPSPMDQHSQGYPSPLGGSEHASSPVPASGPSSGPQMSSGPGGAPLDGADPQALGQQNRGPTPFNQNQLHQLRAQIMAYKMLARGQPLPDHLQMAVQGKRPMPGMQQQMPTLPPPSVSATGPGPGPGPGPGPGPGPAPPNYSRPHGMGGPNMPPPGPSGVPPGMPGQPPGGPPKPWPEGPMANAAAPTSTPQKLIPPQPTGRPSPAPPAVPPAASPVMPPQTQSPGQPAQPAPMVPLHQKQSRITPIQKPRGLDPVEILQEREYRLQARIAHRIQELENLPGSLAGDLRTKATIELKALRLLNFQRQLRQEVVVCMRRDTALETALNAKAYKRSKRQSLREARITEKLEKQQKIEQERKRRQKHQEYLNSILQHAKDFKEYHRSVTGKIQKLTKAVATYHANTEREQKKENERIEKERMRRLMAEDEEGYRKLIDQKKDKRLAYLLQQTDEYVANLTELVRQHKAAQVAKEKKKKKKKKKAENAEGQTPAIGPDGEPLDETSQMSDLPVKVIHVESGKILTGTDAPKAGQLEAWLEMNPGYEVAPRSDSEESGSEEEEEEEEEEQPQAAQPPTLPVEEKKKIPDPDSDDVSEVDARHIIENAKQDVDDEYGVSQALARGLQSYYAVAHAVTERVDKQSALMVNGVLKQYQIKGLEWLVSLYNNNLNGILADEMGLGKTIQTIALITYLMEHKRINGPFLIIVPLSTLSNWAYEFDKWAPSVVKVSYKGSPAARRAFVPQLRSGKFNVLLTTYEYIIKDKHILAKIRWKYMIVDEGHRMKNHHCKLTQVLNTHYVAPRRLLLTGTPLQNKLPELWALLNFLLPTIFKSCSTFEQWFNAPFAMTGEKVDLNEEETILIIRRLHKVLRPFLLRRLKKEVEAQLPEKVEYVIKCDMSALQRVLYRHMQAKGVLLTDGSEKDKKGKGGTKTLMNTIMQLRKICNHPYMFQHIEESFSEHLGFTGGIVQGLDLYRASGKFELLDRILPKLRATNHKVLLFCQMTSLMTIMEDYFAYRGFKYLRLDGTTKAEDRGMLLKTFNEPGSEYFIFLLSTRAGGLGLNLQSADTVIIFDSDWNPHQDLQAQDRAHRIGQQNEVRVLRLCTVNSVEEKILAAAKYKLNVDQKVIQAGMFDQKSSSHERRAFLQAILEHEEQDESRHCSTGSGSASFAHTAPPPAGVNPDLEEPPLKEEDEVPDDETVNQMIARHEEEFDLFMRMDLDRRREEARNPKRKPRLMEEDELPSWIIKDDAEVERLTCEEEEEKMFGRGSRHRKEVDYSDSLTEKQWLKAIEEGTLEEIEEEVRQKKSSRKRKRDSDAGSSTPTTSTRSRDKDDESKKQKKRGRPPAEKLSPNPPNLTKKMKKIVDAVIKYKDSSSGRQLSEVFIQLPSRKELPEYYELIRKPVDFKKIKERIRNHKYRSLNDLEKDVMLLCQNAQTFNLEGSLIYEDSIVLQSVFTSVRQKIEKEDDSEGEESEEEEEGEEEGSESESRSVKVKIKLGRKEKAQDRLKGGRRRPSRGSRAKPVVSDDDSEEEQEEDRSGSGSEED
UniProt P51531, whole entry: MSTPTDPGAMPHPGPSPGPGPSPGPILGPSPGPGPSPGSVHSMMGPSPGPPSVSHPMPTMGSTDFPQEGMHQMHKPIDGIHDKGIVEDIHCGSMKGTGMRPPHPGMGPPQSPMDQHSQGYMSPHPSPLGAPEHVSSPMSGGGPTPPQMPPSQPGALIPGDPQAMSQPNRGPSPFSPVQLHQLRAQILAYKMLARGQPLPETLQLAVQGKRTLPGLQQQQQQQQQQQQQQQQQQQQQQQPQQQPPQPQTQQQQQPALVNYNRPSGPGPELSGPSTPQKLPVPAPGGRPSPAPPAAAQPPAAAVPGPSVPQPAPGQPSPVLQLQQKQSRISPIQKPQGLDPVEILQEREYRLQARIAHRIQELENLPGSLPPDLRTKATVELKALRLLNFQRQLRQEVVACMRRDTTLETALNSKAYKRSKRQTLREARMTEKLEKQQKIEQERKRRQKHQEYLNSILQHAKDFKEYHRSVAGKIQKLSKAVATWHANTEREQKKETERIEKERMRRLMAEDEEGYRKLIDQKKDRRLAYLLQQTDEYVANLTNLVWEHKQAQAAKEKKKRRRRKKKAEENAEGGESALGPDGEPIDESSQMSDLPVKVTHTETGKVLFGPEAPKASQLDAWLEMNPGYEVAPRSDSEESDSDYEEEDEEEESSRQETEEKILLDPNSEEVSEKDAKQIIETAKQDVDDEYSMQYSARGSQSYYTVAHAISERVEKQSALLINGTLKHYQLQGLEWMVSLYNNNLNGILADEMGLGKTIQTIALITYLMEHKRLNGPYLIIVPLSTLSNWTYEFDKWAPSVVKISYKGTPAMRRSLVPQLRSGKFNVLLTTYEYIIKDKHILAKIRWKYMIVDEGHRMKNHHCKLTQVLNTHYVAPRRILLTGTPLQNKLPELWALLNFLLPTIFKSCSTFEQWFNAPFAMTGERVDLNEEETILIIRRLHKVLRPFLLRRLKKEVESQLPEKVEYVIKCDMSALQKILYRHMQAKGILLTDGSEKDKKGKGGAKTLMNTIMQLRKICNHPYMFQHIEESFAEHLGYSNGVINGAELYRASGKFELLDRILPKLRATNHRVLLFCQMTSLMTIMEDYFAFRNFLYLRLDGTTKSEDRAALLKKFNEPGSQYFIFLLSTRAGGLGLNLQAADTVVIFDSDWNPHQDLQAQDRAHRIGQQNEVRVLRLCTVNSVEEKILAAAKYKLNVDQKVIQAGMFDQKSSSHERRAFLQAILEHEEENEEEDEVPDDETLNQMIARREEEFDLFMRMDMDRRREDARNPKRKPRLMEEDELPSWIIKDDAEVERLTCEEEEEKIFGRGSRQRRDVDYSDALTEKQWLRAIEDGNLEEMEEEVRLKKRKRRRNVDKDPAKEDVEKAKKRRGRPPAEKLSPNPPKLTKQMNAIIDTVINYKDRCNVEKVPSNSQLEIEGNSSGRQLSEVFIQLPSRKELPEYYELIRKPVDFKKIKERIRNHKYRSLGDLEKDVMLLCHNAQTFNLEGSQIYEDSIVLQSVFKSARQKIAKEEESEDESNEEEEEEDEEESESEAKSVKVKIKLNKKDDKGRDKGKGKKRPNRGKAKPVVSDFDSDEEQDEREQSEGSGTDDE

How the values were obtained:
[1] = molecular target: SMARCA4-HiBiT HeLa cells (protein which is expressed from the SMARCA4 gene) (Homo sapiens, UniProt P51532); experiment: SMARCA4 degradation assay (HiBiT-fusion HeLa cell line, 24 h, luminescence)
Experimental: (§1) SMARCA2 and SMARCA4 Degradation Assay
(§2) Degradation of protein which is expressed from the SMARCA2 and SMARCA4 genes was monitored using engineered HiBiT-fusion HeLa cell lines from Promega. In brief, 384-well white opaque plates (Greiner) were seeded with SMARCA2-HiBiT or SMARCA4-HiBiT HeLa cells at 8,000 cells/well and incubated overnight at 37° C. to allow cell attachment. After overnight incubation, test compounds were added in a 10-point dilution series (typically 10 μM to 300 pM) using a TECAN D300e Digital Dispenser, and plates were subsequently incubated for 24 hours at 37° C. 24-hours post-treatment, protein levels were quantified with the addition of HiBiT lytic buffer, LgBiT protein, and HiBiT substrate, according to manufacturer's specifications. Plates were incubated on an orbital plate shaker for 10 minutes at room temperature. Resulting luminescent values were read out using a ClarioStar plate reader and used to construct dose-response curves and calculation of degradation DC50s (GraphPad Prism).
(§3) Activity of the tested compounds is provided in Table 4 below as follows: A=DC50<0.050 μM; B=0.05 μM<DC50<0.50 μM; C=<0.5 μM<DC50<5.0 μM; D=DC50>5.0 μM. For SMARCA2 and SMARCA4 degradation activity @1 μM, +++=>70%; ++=30-70%; +=<30%.

[2] = molecular target: SMARCA2-HiBiT HeLa cells (protein which is expressed from the SMARCA2 gene) (Homo sapiens, UniProt P51531); experiment: SMARCA2 degradation assay (HiBiT-fusion HeLa cell line, 24 h, luminescence)
Experimental: as §1, §2, §3

CC(C)C#Cc1cc(N2CCN(c3cc(-c4ccccc4O)nnc3N)CC[C@H]2C)ccn1
SMARCA4 % Degradation @ 1 μM ([1]; 1 μM): + (+=<30%) | DC50 ([1]; read-out: SMARCA4 DC50): 500 to 5000 nM | SMARCA2 % Degradation @ 1 μM ([2]; 1 μM): ++ (++=30-70%) | DC50 ([2]; read-out: SMARCA2 DC50): 500 to 5000 nM
